Literature values in patent US20090130029A1, “GLYCEROL ETHERS VEHICLE AND PHARMACEUTICAL COMPOSITIONS THEREOF” (Foamix Ltd., priority 2007, published 2009).
Some of these results come from one statement about several compounds together.

| SMILES | Solubility in mineral oil [%] | Solubility in dimethyl isosorbide | Solubility in glycofurol | Solubility in propylene glycol | Solubility in polyethylene glycol 400 (PEG 400) (PEG 400) | Solubility in hexylene glycol (hexylene glycol) |
| --- | --- | --- | --- | --- | --- | --- |
| CC(=O)[C@H]1CC[C@H]2[C@@H]3CCC4=CC(=O)CC[C@]4(C)[C@H]3CC[C@]12C [Progesterone] | < 0.001 |  |  |  |  |  |
| Cc1ncc([N+](=O)[O-])n1CCO [Metronidazole] | < 0.01 | more than 1% |  |  |  |  |
| CCCCC(=O)O[C@]1(C(=O)CO)[C@@H](C)C[C@H]2[C@@H]3CCC4=CC(=O)C=C[C@]4(C)[C@@]3(F)[C@@H](O)C[C@@]21C [Betamethasone valerate] | < 0.01 |  | more than 1% |  |  |  |
| CC(=O)N1CCN(c2ccc(OCC3COC(Cn4ccnc4)(c4ccc(Cl)cc4Cl)O3)cc2)CC1 (centres unmarked) [Ketoconazole] | < 0.01 | more than 1% | more than 1% | more than 1% |  |  |
| C/C(=C\C(=O)OCCCCCCCCC(=O)O)C[C@@H]1OC[C@H](C[C@@H]2O[C@H]2[C@@H](C)[C@H](C)O)[C@@H](O)[C@H]1O [Mupirocin] | < 0.01 | more than 1% | more than 1% | more than 1% | more than 1% | more than 1% |
| CCCC(=O)O[C@]1(C(=O)CO)CC[C@H]2[C@@H]3CCC4=CC(=O)CC[C@]4(C)[C@H]3[C@@H](O)C[C@@]21C [Hydrocortisone butyrate] | < 0.01 |  | more than 1% |  |  |  |
